Data as given in paper PMC3215702, “The Nuclear Pore Complex Mediates Binding of the Mig1 Repressor to Target Promoters” (PLoS ONE, 2011).
No constants are given. Whether binding was seen depends on the method and setting. Binding seen in cells or lysates may run through a third protein. Some entries that bind do so weakly or less than the wild type.

Chains of the proteins cited; added tags and fusions are not shown.
UniProt P27705: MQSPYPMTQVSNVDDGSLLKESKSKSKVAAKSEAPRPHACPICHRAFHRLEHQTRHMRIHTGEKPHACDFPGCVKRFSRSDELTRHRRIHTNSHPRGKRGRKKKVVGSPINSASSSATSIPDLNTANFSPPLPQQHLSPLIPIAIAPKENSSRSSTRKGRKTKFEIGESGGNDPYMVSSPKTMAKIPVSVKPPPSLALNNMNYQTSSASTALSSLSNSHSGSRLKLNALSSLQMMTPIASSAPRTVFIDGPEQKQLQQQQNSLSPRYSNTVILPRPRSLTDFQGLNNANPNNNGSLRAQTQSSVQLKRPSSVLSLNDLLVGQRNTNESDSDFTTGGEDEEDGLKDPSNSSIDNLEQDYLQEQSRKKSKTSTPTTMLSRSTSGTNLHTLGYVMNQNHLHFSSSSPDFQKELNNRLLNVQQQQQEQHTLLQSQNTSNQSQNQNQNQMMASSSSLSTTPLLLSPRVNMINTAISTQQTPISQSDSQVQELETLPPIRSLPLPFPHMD
UniProt P52891: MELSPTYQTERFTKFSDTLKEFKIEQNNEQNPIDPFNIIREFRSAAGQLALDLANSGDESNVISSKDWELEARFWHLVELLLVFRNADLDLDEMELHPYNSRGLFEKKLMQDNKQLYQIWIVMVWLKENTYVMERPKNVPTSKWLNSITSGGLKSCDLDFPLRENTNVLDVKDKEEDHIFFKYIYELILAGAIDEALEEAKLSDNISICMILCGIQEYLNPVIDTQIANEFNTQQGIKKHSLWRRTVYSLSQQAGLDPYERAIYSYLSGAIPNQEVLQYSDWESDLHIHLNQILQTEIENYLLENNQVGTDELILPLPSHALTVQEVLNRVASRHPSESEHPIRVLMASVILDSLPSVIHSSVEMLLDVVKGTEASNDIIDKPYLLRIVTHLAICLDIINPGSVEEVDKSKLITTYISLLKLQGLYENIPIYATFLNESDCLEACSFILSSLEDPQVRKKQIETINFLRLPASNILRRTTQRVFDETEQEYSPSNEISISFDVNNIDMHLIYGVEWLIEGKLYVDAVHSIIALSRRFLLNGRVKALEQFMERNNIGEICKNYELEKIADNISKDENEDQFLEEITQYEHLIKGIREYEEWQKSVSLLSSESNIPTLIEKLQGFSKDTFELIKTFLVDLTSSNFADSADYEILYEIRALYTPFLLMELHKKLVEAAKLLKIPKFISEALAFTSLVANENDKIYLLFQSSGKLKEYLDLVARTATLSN

Biological target: T1, Mig1-GFP fusion protein (S. cerevisiae, UniProt P27705 1-504)
T1 construct: Mig1, glucose-regulated repressor of S. cerevisiae; GFP tag integrated at the MIG1 locus; Called a fully functional fusion; also called GFP-tagged Mig1; source: S. cerevisiae, Mig1-GFP strain from the Yeast GFP Clone collection (Invitrogen), integrated GFP tag; in crude lysate or cell fractions
Test: co-IP; anti-GFP antibody added to crude lysate of glucose-grown cells, protein A sepharose; eluate blotted and probed with anti-lexA antibody (anti-GFP as control)

Nup84-lexA (from UniProt P52891 1-726)
binding: binds
